Reference: PubChem BioAssay AID1671190 (National Center for Advancing Translational Sciences (NCATS), 2021)
Among all 580,000 compounds or so, about 6,100 (1.1%) were called active. The inconclusive results got no clear call from the source; some entries with a clear call stand among them for comparison. The call rests on the fitted dose curve; in most records, active means well fitted inhibition curve with a large enough effect; inconclusive means small, poorly fitted or top-dose-only effect, or another doubt; inactive means no such curve, though single readings can be large or run the other way. Potencies of inconclusive entries are doubtful fits and often do not repeat.

Protein sequences, listed by entry. Tags and fused reporters are not part of them. Lines headed by an entry give the natural chain unless they say otherwise; changes in a name come on top.
UniProt P18054: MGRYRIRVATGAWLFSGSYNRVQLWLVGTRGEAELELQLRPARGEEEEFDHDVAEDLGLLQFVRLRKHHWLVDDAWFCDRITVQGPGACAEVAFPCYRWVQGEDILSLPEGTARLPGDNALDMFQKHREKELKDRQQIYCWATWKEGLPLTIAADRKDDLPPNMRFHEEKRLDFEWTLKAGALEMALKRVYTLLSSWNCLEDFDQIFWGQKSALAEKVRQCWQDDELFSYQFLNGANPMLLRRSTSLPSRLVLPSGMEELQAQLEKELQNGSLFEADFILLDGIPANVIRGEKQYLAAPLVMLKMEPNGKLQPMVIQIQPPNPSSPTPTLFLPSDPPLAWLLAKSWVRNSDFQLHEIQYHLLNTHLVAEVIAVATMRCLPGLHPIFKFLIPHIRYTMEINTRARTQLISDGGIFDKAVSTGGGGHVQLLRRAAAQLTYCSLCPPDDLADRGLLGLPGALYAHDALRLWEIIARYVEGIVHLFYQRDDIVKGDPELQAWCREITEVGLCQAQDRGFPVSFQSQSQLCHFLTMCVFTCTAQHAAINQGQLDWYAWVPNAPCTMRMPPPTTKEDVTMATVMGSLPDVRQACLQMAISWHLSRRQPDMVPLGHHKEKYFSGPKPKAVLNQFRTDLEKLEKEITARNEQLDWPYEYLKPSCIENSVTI

molecular target: Polyunsaturated fatty acid lipoxygenase ALOX12 (Homo sapiens) (UniProt P18054); assay: Primary qHTS assay for inhibitors of human arachidonate 12S-lipoxygenase (ALOX12): Round 2; conditions: purified 12hLO, xylenol orange hydroperoxide absorbance; activity change, negative = inhibition: at 108 µM (top of the series) unless noted
Summary of the method: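 Purified human 12hLO (150 nM final) in 25 mM Hepes, 0.01% Triton X-100, pH 7.0 was preincubated 15 min at room temperature with compound. Then 40 uM arachidonic acid was added, 30 min. Hydroperoxide was read by Fe-XO absorbance ratio 573/405 nm.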
On the % scale 0 is the no-effect control and ±100 the full control effect; potency means the concentration at half of the fitted maximal effect.

| Structure (SMILES) | Potency | activity change, negative = inhibition |
| --- | --- | --- |
| O=C(Nc1ccc(Cl)c(C(F)(F)F)c1)C1CCCN(S(=O)(=O)c2cccc3cccnc23)C1 (stereo unspecified) | inconclusive: 56.2 µM [inhibitor, partial curve, poor fit] |  |
| Cc1ccccc1CNC(=O)c1ccccc1NC(=O)c1nsc2ccccc12 | inconclusive: 126 µM [inhibitor, partial curve, poor fit] |  |
| CCNCc1ccc(-c2ccc(F)c(Cl)c2)o1 | inconclusive: 6.31 µM [inhibitor, partial curve, poor fit] |  |
| Cc1ccc2[nH]c3c(=O)n(CCC4=CCCCC4)cnc3c2c1 |  | inactive: 10.8% |
| COc1ccc(-c2nc3ccc(NS(C)(=O)=O)cc3o2)cc1 | inconclusive: 141 µM [inhibitor, partial curve, poor fit] |  |
| Cc1cc(C)cc(Nc2ccc(C(=O)O)cc2N)c1 | inconclusive: 89.1 µM [inhibitor, single point] |  |
| Cc1sc(NC(=O)COc2ccccc2)c(C#N)c1C | inconclusive: 28.2 µM [inhibitor, partial curve, poor fit] |  |
| CCN(C(=O)c1cnc(N2CCN(c3ncccn3)CC2)c2ccccc12)c1cccc(Cl)c1 | inconclusive: 56.2 µM [inhibitor, partial curve, poor fit] |  |
| COc1ccc(OC)c(NC(=O)Nc2ccc3c(c2)CCC3)c1 |  | inactive: -21% |
| CCNC(=S)Nc1ccc(NC(=O)c2ccccc2O)cc1 | inconclusive: 112 µM [inhibitor, single point] |  |
| CCOC(=O)C1CCN(C2=C(NS(=O)(=O)c3ccc(Br)cc3)C(=O)c3ccccc3C2=O)CC1 | inconclusive: 39.8 µM [inhibitor, partial curve] |  |
| O=C(CCCc1ccccc1)Nc1ccnn1C1CCN(Cc2ccccn2)CC1 | inconclusive: 35.5 µM [inhibitor, single point] |  |
| CCC(C)(C)C(=O)Nc1ncc(S(=O)(=O)c2ccc([N+](=O)[O-])cc2)s1 | inconclusive: 6.31 µM [inhibitor, full curve, poor fit] |  |
| CCCCN1C(=O)C2ON(c3ccccc3C)C(c3ccco3)C2C1=O (stereo unspecified) | inconclusive: 25.1 µM [inhibitor, single point] |  |
| CC(Sc1ccc(Cl)cc1)C(=O)OCc1nc(N)nc(Nc2ccccc2)n1 (stereo unspecified) | inconclusive: 6.31 µM [inhibitor, full curve, poor fit] |  |
| O=C(O)c1ccc(Nc2nc(-c3ccccc3)c3cc(Br)ccc3n2)cc1 | inconclusive: 50.1 µM [inhibitor, partial curve, poor fit] |  |
| CCOC(=O)C1CCN(Cc2ccc(-c3ccccc3)cc2)CC1 | inconclusive: 0.251 µM [inhibitor, full curve, poor fit] |  |
| O=[N+]([O-])c1ccc(C[n+]2cc(-c3ccc(Cl)c(Cl)c3)n3c2CCCCC3)cc1 | inconclusive: 5.01 µM [inhibitor, full curve, poor fit] |  |
| CCOC(=O)c1c(C)n(C)c2ccc(OCC(O)CNC(CC)CO)cc12 (stereo unspecified) |  | inactive: 0% |
| COc1cc(OC)c(OC)cc1CC1C(=O)Nc2ccc(Br)cc21 (stereo unspecified) | inconclusive: 50.1 µM [inhibitor, partial curve, poor fit] |  |
| N#Cc1ccc(F)c(COC(=O)c2ccc(N3CCOCC3)nc2)c1 | inconclusive: 100 µM [inhibitor, single point] |  |

| Structure (SMILES) | Potency | activity change, negative = inhibition |
| --- | --- | --- |
| N#CC1=C(N)SC(N)=C(C#N)C1c1ccnc2ccccc12 | active: 4.47 µM |  |
| O=[N+]([O-])c1ccc2c(c1N1CCCCC1)=NC1(CCCCC1)[N+]=2[O-] |  | inactive: 0% |
| COc1ccc(SCCC(=O)OCc2ccc(C#N)cc2)cc1 | inconclusive: 39.8 µM [inhibitor, partial curve, poor fit] |  |
| CCOC(=O)C1=C(N)Oc2cc(O)ccc2C1c1ccccc1Cl (stereo unspecified) | inconclusive: 100 µM [inhibitor, partial curve, poor fit] |  |
| CCN(CC)C(=O)c1cccc(-c2csc(C(C)(O)c3ccncc3)n2)c1 (stereo unspecified) | inconclusive: 63.1 µM [inhibitor, partial curve, poor fit] |  |
| C=CCOc1ccc(/C=C2/C(=O)ON=C2C)cc1OCC | inconclusive: 15.8 µM [inhibitor, full curve, poor fit] |  |
| O=C(Cn1cccc1-c1nc(-c2ccc(F)cc2)no1)NCc1ccccc1Cl | inconclusive: 79.4 µM [inhibitor, single point] |  |
| CN1C(=O)C(n2cccc2)c2ccccc21 (stereo unspecified) | inconclusive: 44.7 µM [inhibitor, partial curve, poor fit] |  |
| O=C(NC[C@@H]1C[C@H](F)CN1)c1ccc(-c2cn(-c3ccccc3)cn2)cc1 | inconclusive: 20 µM [inhibitor, full curve] |  |
| O/N=C/c1ccc(OCc2ccc(Cl)cc2Cl)cc1 | inconclusive: 100 µM [inhibitor, single point] |  |
| CCCn1c(C2CC(=O)N(c3ccc(CC)cc3)C2)nc2ccccc21 (stereo unspecified) |  | inactive: 8.47% |
| CN(CC(=O)Nc1ccc2c(c1)OC1(CCCCC1)O2)Cc1ccsc1 | inconclusive: 89.1 µM [inhibitor, single point] |  |
| CC(C)c1onc(C(=O)N2CCCCC2)c1[N+](=O)[O-] |  | inactive: 0.0038% |
| CCCCN(C)c1ccc(/C=N/NC(=S)Nc2ccc(CC)cc2)cc1 | inconclusive: 39.8 µM [inhibitor, partial curve, poor fit] |  |
| Cc1sc2ncnc(N/N=C/c3cccc(O)c3)c2c1C |  | inactive: -7.44% |
| Cc1cc(=O)n(C)c(=O)n1CCCCCN1CCCC1 | inconclusive: 3.16 µM [inhibitor, full curve, poor fit] |  |
| N#CC1=C(N)Oc2nc(SCc3ccccc3Cl)nc(N)c2C1c1cccc(F)c1 (stereo unspecified) | inconclusive: 39.8 µM [inhibitor, partial curve, poor fit] |  |
| CCC1CCC(c2ccc(C(=O)CCN(C)C)cc2)CC1 (stereo unspecified) | inconclusive: 7.08 µM [inhibitor, full curve, poor fit] |  |
| CN(Cc1ccccc1)Cc1nc2c(n1Cc1ccccc1)C(=O)N(CC1CC1)CCN2 |  | inactive: 87.2% [at 176 µM] |
| CCOC(=O)c1sc(NC(=O)CSC(=S)N2CCOCC2)nc1C | inconclusive: 50.1 µM [inhibitor, partial curve, poor fit] |  |

11 consecutive records already listed, quoted:

| Structure (SMILES) | Potency | activity change, negative = inhibition |
| --- | --- | --- |
| O=[N+]([O-])c1ccc2c(c1N1CCCCC1)=NC1(CCCCC1)[N+]=2[O-] |  | inactive: 0% |
| COc1ccc(SCCC(=O)OCc2ccc(C#N)cc2)cc1 | inconclusive: 39.8 µM [inhibitor, partial curve, poor fit] |  |
| CCOC(=O)C1=C(N)Oc2cc(O)ccc2C1c1ccccc1Cl (stereo unspecified) | inconclusive: 100 µM [inhibitor, partial curve, poor fit] |  |
| CCN(CC)C(=O)c1cccc(-c2csc(C(C)(O)c3ccncc3)n2)c1 (stereo unspecified) | inconclusive: 63.1 µM [inhibitor, partial curve, poor fit] |  |
| C=CCOc1ccc(/C=C2/C(=O)ON=C2C)cc1OCC | inconclusive: 15.8 µM [inhibitor, full curve, poor fit] |  |
| O=C(Cn1cccc1-c1nc(-c2ccc(F)cc2)no1)NCc1ccccc1Cl | inconclusive: 79.4 µM [inhibitor, single point] |  |
| CN1C(=O)C(n2cccc2)c2ccccc21 (stereo unspecified) | inconclusive: 44.7 µM [inhibitor, partial curve, poor fit] |  |
| O=C(NC[C@@H]1C[C@H](F)CN1)c1ccc(-c2cn(-c3ccccc3)cn2)cc1 | inconclusive: 20 µM [inhibitor, full curve] |  |
| O/N=C/c1ccc(OCc2ccc(Cl)cc2Cl)cc1 | inconclusive: 100 µM [inhibitor, single point] |  |
| CCCn1c(C2CC(=O)N(c3ccc(CC)cc3)C2)nc2ccccc21 (stereo unspecified) |  | inactive: 8.47% |
| CN(CC(=O)Nc1ccc2c(c1)OC1(CCCCC1)O2)Cc1ccsc1 | inconclusive: 89.1 µM [inhibitor, single point] |  |
